# Data taken from EP1353939B1 (Sankt-Peterburgskaya Obschestvennaya Organizatsia …, priority 2001, dated 2004).
# Assay: general procedure: solution-phase peptide synthesis; N,N'-dicyclohexylcarbodiimide / N-oxybenzotriazol
Substance,step yield (coupling step) [%],step yield (late stage modification step) [%],"final HPLC purity (purification step, 220 nm) [%]"
Cbz-K(Cbz)E(OBn)D(OBn)P-OBn,68,–,–
H-Lys-Glu-Asp-Pro-OH,–,90,98.56

# The star is where a group is joined. Cbz = O=C(OCc1ccccc1)*; OBn = c1ccc(CO*)cc1
